# Source: PubChem BioAssay AID504467 (National Center for Advancing Translational Sciences (NCATS), 2011)
# Hit rate of the full screen: of about 330,000 compounds, about 7,700 (2.3%) were called active. The shares of active, inactive and inconclusive entries below differ from those in the screen. The call rests on the fitted dose curve; in most records, active means well fitted inhibition curve with a large enough effect; inconclusive means small, poorly fitted or top-dose-only effect, or effect the other way; inactive means flat fitted curve, though single readings scatter. Potencies of inconclusive entries are doubtful fits and often do not repeat.
# Assay: qHTS screen for small molecules that inhibit ELG1-dependent DNA repair in human embryonic kidney (HEK293T) cells expressing luciferase-tagged ELG1; further: nearly all actives have a fitted effect of over 55% in size
# Conditions: HEK293T ELG1-luciferase reporter, luminescence, 16 h, DNA damage induced by 5-fluorouridine; activity change, negative = inhibition: at 46.1 µM (top of the series)
# How it was run: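 Quantitative HTS, concentration-response format. 2,000 cells/well co-treated with 5-fluorouridine and compound, 16 hr in 5% CO2 at 37 °C; ONE-Glo luminescence read after 30 min.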
# On the % scale 0 is the no-effect control and ±100 the full control effect; potency means the concentration at half of the fitted maximal effect.
Compound,Potency,"activity change, negative = inhibition"
O=C(COC(=O)CNC(=O)c1ccccc1Cl)Nc1ccccc1Cl,"inconclusive: 20.6 µM [activator, single point]",
COc1ccccc1NC(=S)N(Cc1ccccc1)Cc1cccs1,"inconclusive: 25.9 µM [activator, partial curve, poor fit]",
CCN=C1S/C(=C\c2cc(Br)ccc2OCC(=O)OCC)C(=O)N1CC,"inconclusive: 18.4 µM [inhibitor, partial curve, poor fit]",
COc1ccc(CCNC(=O)NS(=O)(=O)c2ccc(C)cc2)cc1OC,"inconclusive: 29.1 µM [activator, single point]",
Nc1c(N2CCOCC2)cc(Cl)c2nonc12,,inactive: -9.24%
Cc1nn(-c2ccc(NC(=O)c3ccncc3)cc2)c(C)c1Cl,active: 4.61 µM,
CCN(c1ccccc1)S(=O)(=O)c1ccc(Cl)c(C(=O)N(CC2CCCO2)C2CCS(=O)(=O)C2)c1 (stereo not drawn),,inactive: 0%
CCCCOC(=O)Cn1c2ccc(OC)cc2c2nc3ccccc3nc21,"inconclusive: 29.1 µM [activator, single point]",
CS(=O)(=O)N(CC(=O)NCc1ccccc1)c1ccc(Cl)cc1,"inconclusive: 3.26 µM [activator, full curve]",
C=CCn1cccc(C(=O)Nc2ccc(Cl)cc2)c1=O,"inconclusive: 25.9 µM [activator, single point]",
CCCc1ccc(OCc2ccc(C(=O)O)o2)c(OC)c1,"inconclusive: 2.59 µM [activator, partial curve, poor fit]",
O=C(O)CC1(CC(=O)N2CCC(C(=O)O)CC2)CCCC1,,inactive: -4.07%
CSCC[C@H](NC(=O)N1CCn2c1nc1ccccc12)C(=O)NC1CC1,,inactive: 5.51%
CC12CCC(C(=O)Nc3nc4ccccc4s3)(OC1=O)C2(C)C (stereo not drawn),"inconclusive: 5.8 µM [activator, full curve]",
C/C(CC(=O)Nc1ccccn1)=N\NC(=O)c1ccccc1,"inconclusive: 29.1 µM [activator, single point]",
CCN(CC)S(=O)(=O)c1ccc(C)c(NC(=O)CNc2cccc(S(=O)(=O)N3CCCC3)c2)c1,"inconclusive: 10.3 µM [inhibitor, partial curve, poor fit]",
COc1ccc(NC(=O)C2=CC(c3ccc(C)cc3)=NS(=O)(=O)N2C)cc1,,inactive: -5.37%
Cc1cc(C)c(NC(=O)CN(C)C(C)C(=O)N2CCc3ccccc32)c(C)c1 (stereo not drawn),,inactive: -28.2%
COc1ccc(C2CC(c3ccccc3)=NN2C(=O)COC(=O)c2ccc(S(C)(=O)=O)cc2)cc1 (stereo not drawn),"inconclusive: 32.6 µM [inhibitor, single point]",
O=C(N/N=C\c1cn[nH]c1-c1ccccc1)c1cccs1,,inactive: 3.54%
CC(=O)Nc1sc2c(c1CN1CCN(c3ccc(F)cc3)CC1)CCCC2,"inconclusive: 18.4 µM [inhibitor, single point]",
CCOc1ccc(Nc2cc(C)nc(N3CCOCC3)n2)cc1,,inactive: -10.5%
Cc1c(CC(C)C)nc(N)c(C#N)c1-c1ccccc1,"inconclusive: 20.6 µM [inhibitor, single point]",

Compound,Potency,"activity change, negative = inhibition"
O=C(O)c1ccc(N/N=C/c2cn(Cc3ccc(F)cc3)c3ccccc23)cc1,"inconclusive: 4.61 µM [activator, full curve]",
CC(C)(C)c1ccc(Oc2coc3cc(OCC(=O)O)ccc3c2=O)cc1,"inconclusive: 14.6 µM [activator, single point]",
C=CCn1cnc2c(NCc3ccccc3)ncnc21,"inconclusive: 4.11 µM [activator, single point]",
Cc1cccc(NC(=O)C2(c3cccs3)CCOCC2)c1,,inactive: -0.107%
NCCc1nnc(SCc2ccccc2Cl)o1,"inconclusive: 32.6 µM [activator, partial curve, poor fit]",
Cc1ccc2c(CC(=O)NNC(=O)c3ccccc3)coc2c1,"inconclusive: 29.1 µM [activator, single point]",
C[C@H](NC(=O)c1nc[nH]c1C(=O)NCCCCCNC(=O)OC(C)(C)C)C(=O)OC(C)(C)C,active: 5.17 µM,
Cc1ccc(OCc2ccc(C(=O)Nc3c(C)nn(Cc4c(F)c(F)c(F)c(F)c4F)c3C)o2)c([N+](=O)[O-])c1,"inconclusive: 18.4 µM [inhibitor, partial curve]",
CC(C)=CC(=O)Nc1nnc(-c2ccc(F)cc2)s1,"inconclusive: 4.61 µM [activator, partial curve]",
COc1cccc(NC(=O)/C=C/c2ccc(S(=O)(=O)N3CCOCC3)cc2)c1,"inconclusive: 22.4 µM [inhibitor, single point]",
COc1ccccc1-c1nc(C(=O)NCC2CCCO2)cc2c1[nH]c1ccccc12 (stereo not drawn),"inconclusive: 7.3 µM [inhibitor, single point]",
COc1cc(NC(=O)c2cccs2)c(C(=O)OCC(=O)NC(C)c2ccccc2)cc1OC (stereo not drawn),"inconclusive: 18.4 µM [inhibitor, single point]",
CC(C)CC1=NN2C(=N)/C(=C\c3coc4ccccc4c3=O)C(=O)N=C2S1,"inconclusive: 14.6 µM [activator, partial curve]",
O=C(Nc1cccc(Cl)c1N1CCOCC1)c1ccco1,"inconclusive: 16.4 µM [inhibitor, partial curve, poor fit]",
COc1ccccc1C(=O)NN(C)C1=NS(=O)(=O)c2ccccc21,"inconclusive: 18.3 µM [activator, partial curve, poor fit]",
COC(=O)c1ccc(CSc2ncnc3sc(C)c(C)c23)o1,,inactive: 4.29%
Cc1nnc(NC(=O)C2COc3ccccc3O2)s1 (stereo not drawn),"inconclusive: 10 µM [activator, partial curve]",
C[C@]1(C(=O)NCCCNc2ncc(C(F)(F)F)cc2Cl)C=C[C@@H](Cc2ccccc2)N1C(=O)c1ccccc1,,inactive: -0.534%
COc1ccc(NC(=O)Cc2nn(C)c(=O)c3ccccc23)c2ncccc12,"inconclusive: 4.11 µM [inhibitor, full curve]",
OC(COCc1cccs1)CN1CCCCCC1 (stereo not drawn),"inconclusive: 6.51 µM [inhibitor, partial curve, poor fit]",
CCCCCc1ccc(-c2cn(CN3C(=O)c4ccccc4C3=O)nn2)cc1,,inactive: -7.88%
C[C@@H](C(=O)Nc1ccc2ccccc2c1)[C@@H]1C[C@@]1(C)[C@@H](NC(=O)c1cnccn1)c1ccccc1,,inactive: -5.89%
O=C(c1ccc(S(=O)(=O)N2CCCC2)cc1)N1CCN(c2cccc(Cl)c2)CC1,,inactive: -14.2%

# A stretch from the list above:
Compound,Potency,"activity change, negative = inhibition"
C[C@H](NC(=O)c1nc[nH]c1C(=O)NCCCCCNC(=O)OC(C)(C)C)C(=O)OC(C)(C)C,active: 5.17 µM,
Cc1ccc(OCc2ccc(C(=O)Nc3c(C)nn(Cc4c(F)c(F)c(F)c(F)c4F)c3C)o2)c([N+](=O)[O-])c1,"inconclusive: 18.4 µM [inhibitor, partial curve]",
CC(C)=CC(=O)Nc1nnc(-c2ccc(F)cc2)s1,"inconclusive: 4.61 µM [activator, partial curve]",
COc1cccc(NC(=O)/C=C/c2ccc(S(=O)(=O)N3CCOCC3)cc2)c1,"inconclusive: 22.4 µM [inhibitor, single point]",
COc1ccccc1-c1nc(C(=O)NCC2CCCO2)cc2c1[nH]c1ccccc12 (stereo not drawn),"inconclusive: 7.3 µM [inhibitor, single point]",
COc1cc(NC(=O)c2cccs2)c(C(=O)OCC(=O)NC(C)c2ccccc2)cc1OC (stereo not drawn),"inconclusive: 18.4 µM [inhibitor, single point]",
CC(C)CC1=NN2C(=N)/C(=C\c3coc4ccccc4c3=O)C(=O)N=C2S1,"inconclusive: 14.6 µM [activator, partial curve]",
O=C(Nc1cccc(Cl)c1N1CCOCC1)c1ccco1,"inconclusive: 16.4 µM [inhibitor, partial curve, poor fit]",
COc1ccccc1C(=O)NN(C)C1=NS(=O)(=O)c2ccccc21,"inconclusive: 18.3 µM [activator, partial curve, poor fit]",
COC(=O)c1ccc(CSc2ncnc3sc(C)c(C)c23)o1,,inactive: 4.29%
Cc1nnc(NC(=O)C2COc3ccccc3O2)s1 (stereo not drawn),"inconclusive: 10 µM [activator, partial curve]",
C[C@]1(C(=O)NCCCNc2ncc(C(F)(F)F)cc2Cl)C=C[C@@H](Cc2ccccc2)N1C(=O)c1ccccc1,,inactive: -0.534%

# Going on with the list.

Compound,Potency,"activity change, negative = inhibition"
COCCN(Cc1cc2cc(C)ccc2n2nnnc12)C(=S)Nc1cccc(C)c1,"inconclusive: 23.1 µM [inhibitor, single point]",
O=S(=O)(c1ccc2ccccc2c1)N1CCN(C(=S)Nc2ccc(F)cc2)CC1,active: 18.4 µM,
CCCCN1C(=O)c2ccc(C(=O)Nc3ccc(S(=O)(=O)N(C)C)cc3)cc2C1=O,"inconclusive: 14.6 µM [inhibitor, partial curve, poor fit]",
CCNc1nc(NCC)n2c(SCC(=O)N(CC)C3CCCCC3)nnc2n1,"inconclusive: 20.6 µM [inhibitor, partial curve]",
COc1ccc(N2C(=O)N3[C@H](c4ccc(Br)cc4)[C@@H]4C(=O)N(C(C)(C)C)C(=O)[C@@H]4[C@]3(Cc3ccccc3)C2=O)cc1,,inactive: -24.3%
COc1ccc(-n2c(SCC(=O)Nc3ccc(C(N)=O)cc3)nc3ccccc3c2=O)cc1OC,"inconclusive: 18.3 µM [activator, partial curve]",
C/C(=N\NC(=O)C1CC1)c1ccc(Cl)cc1,"inconclusive: 18.4 µM [activator, single point]",
Oc1cccc2ccc(/C=C/c3ccccc3Br)nc12,"inconclusive: 14.6 µM [activator, partial curve]",
COc1ccc(C(C)(C)C)cc1NC(=O)COC(=O)C1=NNC(=O)CC1,,inactive: 9.26%
N#Cc1cccc(Cn2cc(C(F)(F)F)ccc2=O)c1,"inconclusive: 18.3 µM [inhibitor, single point]",
C[C@H](CO)N1C[C@H](C)[C@@H](CN(C)Cc2ccc(Oc3ccccc3)cc2)Oc2c(NC(=O)c3ccncc3)cccc2C1=O,"inconclusive: 16.4 µM [inhibitor, partial curve]",
CN(C)C=NC1=NN(c2cccc(C(F)(F)F)c2)CC1,"inconclusive: 20.6 µM [activator, partial curve]",
Cc1cc2ncn(-c3nnnn3-c3ccccc3)c2cc1C,"inconclusive: 0.82 µM [activator, single point]",
CC(C)Sc1nc2ccc(Br)cc2[nH]1,"inconclusive: 20.6 µM [activator, partial curve]",
CCOc1ccc(C(=O)CCCC(=O)c2ccc(OCC)cc2)cc1,"inconclusive: 20.6 µM [activator, partial curve]",
Cc1ccc(S(=O)(=O)Nc2cccc(C(=O)N3CCOCC3)c2)c(C)c1NS(C)(=O)=O,,inactive: 8.1%
CCOc1ccccc1NC(=O)Cc1c(F)cccc1Cl,,inactive: 15.1%
COc1ccc(/C=N/OCc2ccccc2C#N)c(OC)c1,"inconclusive: 14.6 µM [activator, partial curve]",
CCOc1ccc(CCNC(=O)c2ccc(C)c(NC3=NC4CS(=O)(=O)CC4S3)c2)cc1 (stereo not drawn),,inactive: 22.1%
O=C(COC(=O)c1cccc(S(=O)(=O)N2CCOCC2)c1)NCCc1ccccc1,,inactive: -18.9%
CCOC(=O)C1CCCN(Cc2cc(=O)oc3cc(C)c(C(C)C)cc23)C1 (stereo not drawn),"inconclusive: 25.9 µM [inhibitor, single point]",
O=C(Nc1ccc2oc(=O)ccc2c1)c1cccnc1,"inconclusive: 16.4 µM [activator, single point]",
